From the supplement of paper PMC10470496
Structures can show the parent of a compound that is named as a salt. The list shows a part of the results. Repeats are few or missing, and single values can be far off.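 The strains were three CDC resistance-bank clinical C. auris isolates from clades III, IV and I, cultured in RPMI-1640 at 35°C. Growth was background-corrected OD600 versus vehicle-only wells on the same plate. A hit needed >50% inhibition in two or more strains plus a plate-corrected B-score exceeding 0.1.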

Tests used:
Experiment in all cases: growth relative to vehicle control (OD600 ratio) (fraction); higher = less inhibition
Conditions in all cases: 24 h
C. auris AR-384 = test system: C. auris AR-384
C. auris AR-386 = test system: C. auris AR-386
C. auris AR-387 = test system: C. auris AR-387

SMILES | growth (C. auris AR-384; 1 µM) | growth (C. auris AR-384; 10 µM) | growth (C. auris AR-386; 1 µM) | growth (C. auris AR-386; 10 µM) | growth (C. auris AR-387; 1 µM) | growth (C. auris AR-387; 10 µM)
O=C(Nc1ccccc1)OCC(CN1CCCCC1)OC(=O)Nc1ccccc1 (stereo unspecified) [Diperodon HCl] | 0.87 | 0.73 | 0.77 | 0.63 | 0.63 | 0.6
CCN1CCCC1CNC(=O)c1cc(S(N)(=O)=O)ccc1OC (stereo unspecified) [Sulpiride] | 0.69 | 0.9 | 0.72 | 0.79 | 0.84 | 0.79
CN(C)[C@@H]1C(O)=C(C(N)=O)C(=O)[C@@]2(O)C(O)=C3C(=O)c4c(O)ccc(Cl)c4[C@@H](O)[C@H]3C[C@@H]12 [Demeclocycline HCl] | 0.92 | 0.7 | 0.67 | 0.61 | 0.76 | 0.98
O=C(O)c1ccccc1O [Salicylic acid] | 0.73 | 0.64 | 0.79 | 0.57 | 0.78 | 0.64
CC(C)C(=O)OCC(=O)[C@@]12O[C@H](C3CCCCC3)O[C@@H]1C[C@H]1[C@@H]3CCC4=CC(=O)C=C[C@]4(C)[C@H]3[C@@H](O)C[C@@]12C [Ciclesonide] | 0.77 | 0.88 | 0.7 | 0.74 | 0.69 | 0.68
CN(C)Cc1ccc(S(=O)(=O)n2ccc(/C=C/C(=O)NO)c2)cc1 [Resminostat] | 0.97 | 0.94 | 0.62 | 1.27 | 1.05 | 1.12
CCN(CC)CCNC(=O)c1cc(Cl)c(N)cc1OC [Metoclopramide HCl] | 0.78 | 0.73 | 0.58 | 0.87 | 0.71 | 0.47
Cc1cccc(Nc2ccccc2C(=O)O)c1C [Mefenamic Acid] | 1.11 | 0.82 | 0.85 | 1.09 | 1.03 | 0.74
CCOc1cc([C@@H](CS(C)(=O)=O)N2C(=O)c3cccc(NC(C)=O)c3C2=O)ccc1OC | 1.19 | 1.34 | 1.18 | 1.33 | 1.04 | 1.16
O=C1C(O)=C([C@H]2CC[C@H](c3ccc(Cl)cc3)CC2)C(=O)c2ccccc21 [Atovaquone] | 1.05 | 1.01 | 0.9 | 0.72 | 1.01 | 0.76
CC(C)NCC(O)COc1ccc(CCOCC2CC2)cc1 (stereo unspecified) [Betaxolol] | 0.91 | 1 | 0.91 | 1.01 | 1 | 0.88
C[C@H](N[C@@H](CCc1ccccc1)C(=O)O)C(=O)N1CCC[C@H]1C(=O)O [Enalaprilat Dihydrate] | 0.73 | 1.16 | 0.96 | 0.84 | 0.83 | 1.01
Cc1c(C(=O)NN2CCCCC2)nn(-c2ccc(Cl)cc2Cl)c1-c1ccc(Cl)cc1 [Rimonabant] | 1.03 | 0.65 | 0.72 | 0.88 | 0.68 | 0.79
CN1C(C(=O)Nc2ccccn2)=C(O)c2sc(Cl)cc2S1(=O)=O [Lornoxicam] | 1.19 | 1.32 | 1.25 | 1.25 | 1.61 | 1.53
CC(C)c1cc(-c2n[nH]c(=O)n2-c2ccc3c(ccn3C)c2)c(O)cc1O [Ganetespib (STA-9090)] | 1.01 | 1.18 | 1.24 | 1.45 | 1.09 | 1.28
COCC[n+]1c2c(n(Cc3cnccn3)c1C)C(=O)c1ccccc1C2=O [YM155 (Sepantronium Bromide)] | 1.32 | 0.9 | 0.71 | 0.83 | 1.12 | 0.82
CC(C)NCC(O)COc1cccc2ccccc12 (stereo unspecified) [Propranolol HCl] | 0.81 | 0.66 | 0.98 | 0.6 | 0.71 | 0.67
CC(=O)S[C@@H]1CC2=CC(=O)CC[C@]2(C)[C@H]2CC[C@@]3(C)[C@@H](CC[C@@]34CCC(=O)O4)[C@H]12 [Spironolactone] | 0.84 | 0.8 | 0.74 | 0.89 | 0.71 | 0.86
CN(C)c1cc(NC(=O)CNC(C)(C)C)c(O)c2c1C[C@H]1C[C@H]3[C@H](N(C)C)C(O)=C(C(N)=O)C(=O)[C@@]3(O)C(O)=C1C2=O [Tigecycline] | 0.88 | 0.85 | 1.14 | 1.09 | 0.98 | 1.11
C=C[C@@H]1C[C@]1(NC(=O)[C@@H]1C[C@@H]2CN1C(=O)[C@H](C(C)(C)C)NC(=O)O[C@@H]1C[C@H]1CCCCCc1nc3ccc(OC)cc3nc1O2)C(=O)NS(=O)(=O)C1CC1 [Grazoprevir] | 1.03 | 1.25 | 0.94 | 1.4 | 1.25 | 1.19
CNCC[C@H](Oc1cccc2ccccc12)c1cccs1 [Duloxetine HCl] | 1.37 | 0.95 | 1.08 | 1.18 | 1.1 | 1.35
CCN(CC)CCOC(=O)C(c1ccccc1)c1ccccc1 [Adiphenine HCl] | 0.98 | 0.91 | 1.01 | 1.18 | 1.02 | 1.26
Cc1onc(-c2ccccc2Cl)c1C(=O)N[C@@H]1C(=O)N2[C@@H]1SC(C)(C)[C@@H]2C(=O)O [Cloxacillin Sodium] | 1.05 | 0.57 | 0.85 | 0.9 | 0.69 | 0.83

A different layout for some results above:
SMILES,growth (C. auris AR-384; 1 µM),growth (C. auris AR-384; 10 µM),growth (C. auris AR-386; 1 µM),growth (C. auris AR-386; 10 µM),growth (C. auris AR-387; 1 µM),growth (C. auris AR-387; 10 µM)
CN(C)Cc1ccc(S(=O)(=O)n2ccc(/C=C/C(=O)NO)c2)cc1 [Resminostat],0.97,0.94,0.62,1.27,1.05,1.12
COCC[n+]1c2c(n(Cc3cnccn3)c1C)C(=O)c1ccccc1C2=O [YM155 (Sepantronium Bromide)],1.32,0.9,0.71,0.83,1.12,0.82

(further entries)

SMILES | growth (C. auris AR-384; 1 µM) | growth (C. auris AR-384; 10 µM) | growth (C. auris AR-386; 1 µM) | growth (C. auris AR-386; 10 µM) | growth (C. auris AR-387; 1 µM) | growth (C. auris AR-387; 10 µM)
Cc1onc(-c2ccccc2)c1-c1ccc(S(N)(=O)=O)cc1 [Valdecoxib] | 0.88 | 0.76 | 1.04 | 1.15 | 0.86 | 0.77
CN[C@@H]1[C@H](O[C@H]2[C@H](O[C@H]3[C@H](O)[C@@H](O)[C@H](NC(=N)N)[C@@H](O)[C@@H]3NC(=N)N)O[C@@H](C)[C@]2(O)CO)O[C@@H](CO)[C@H](O)[C@H]1O [Dihydrostreptomycin sulfate] | 1.36 | 1.45 | 1.06 | 1.41 | 0.89 | 1.17
NC(=O)C(c1ccccc1)(c1ccccc1)[C@@H]1CCN(CCc2ccc3c(c2)CCO3)C1 [Darifenacin HBr] | 0.83 | 0.78 | 0.78 | 0.95 | 1.03 | 0.67
CC(=O)Oc1ccccc1C(=O)O [Aspirin] | 0.94 | 0.75 | 0.88 | 0.94 | 0.94 | 0.89
NS(=O)(=O)c1cc2c(cc1Cl)NC(C(Cl)Cl)NS2(=O)=O (stereo unspecified) [Trichlormethiazide] | 1 | 0.58 | 1.11 | 1.47 | 1.02 | 1
CCN(CC)CCNC(=O)c1c(C)[nH]c(/C=C2\C(=O)Nc3ccc(F)cc32)c1C [Sunitinib Malate] | 0.62 | 0.58 | 0.8 | 0.66 | 0.56 | 0.72
Nc1nc(=O)c2c([nH]1)NC[C@H](CNc1ccc(C(=O)N[C@@H](CCC(=O)O)C(=O)O)cc1)N2C=O [Calcium Levofolinate] | 0.83 | 0.67 | 0.68 | 0.69 | 0.92 | 0.96
CC(=O)NS(=O)(=O)c1ccc(N)cc1 [Sulfacetamide Sodium] | 1.39 | 1.76 | 1.18 | 1.32 | 1.25 | 1.27
CN(C)CC/C=C1/c2ccccc2Sc2ccc(Cl)cc21 [Chlorprothixene] | 0.94 | 0.98 | 0.73 | 0.63 | 0.86 | 1.04
CO[C@H]1/C=C/O[C@@]2(C)Oc3c(C)c(O)c4c(O)c(c5c(nc6cc(C)ccn65)c4c3C2=O)NC(=O)/C(C)=C\C=C\[C@H](C)[C@H](O)[C@@H](C)[C@@H](O)[C@@H](C)[C@H](OC(C)=O)[C@@H]1C [Rifaximin] | 0.75 | 0.62 | 0.85 | 0.84 | 0.95 | 0.69
Nc1ccccc1NC(=O)c1ccc(CNC(=O)OCc2cccnc2)cc1 [Entinostat (MS-275)] | 0.75 | 0.63 | 0.65 | 0.79 | 0.95 | 0.84
CCOC(=O)C1=C(COCCN)NC(C)=C(C(=O)OC)C1c1ccccc1Cl (stereo unspecified) [Amlodipine] | 1.28 | 1.42 | 1.18 | 0.62 | 1.04 | 0.72
Nc1c2c(nc3ccccc13)CCCC2 [Tacrine HCl] | 0.85 | 0.75 | 0.62 | 0.89 | 0.76 | 0.86
Cc1ccccc1C(OCCN(C)C)c1ccccc1 (stereo unspecified) [Orphenadrine Citrate] | 0.91 | 1.02 | 1 | 0.68 | 0.65 | 0.7
NCCc1ccc(O)c(O)c1 [Dopamine HCl] | 0.94 | 0.99 | 0.76 | 1.03 | 1 | 1.1
CC(C)NC[C@H](O)COc1ccc(CCOCC2CC2)cc1 [Levobetaxolol HCl] | 1.01 | 0.89 | 1.3 | 0.57 | 0.71 | 0.73
C[C@@](Cc1ccc(O)c(O)c1)(NN)C(=O)O [Carbidopa] | 1.04 | 1.04 | 1.07 | 0.67 | 0.85 | 0.61
CN1CCC(OC(c2ccccc2)c2ccccc2)CC1 [Diphenylpyraline HCl] | 1.2 | 1.3 | 1.01 | 1.11 | 0.99 | 0.97
COc1c2occc2cc2ccc(=O)oc12 [Methoxsalen] | 0.86 | 0.59 | 1.04 | 0.96 | 0.82 | 1.06
CC1=C(C(=O)O)N2C(=O)[C@@H](NC(=O)[C@H](N)c3ccccc3)[C@H]2SC1 [Cephalexin] | 0.96 | 0.76 | 0.69 | 0.85 | 0.84 | 1.11
C#C[C@]1(O)CC[C@H]2[C@@H]3CCc4cc(OC)ccc4[C@H]3CC[C@@]21C [Mestranol] | 0.89 | 0.99 | 0.98 | 0.77 | 0.64 | 0.61
CNC(=C[N+](=O)[O-])NCCSCc1ccc(CN(C)C)o1 [Ranitidine Hydrochloride] | 0.91 | 0.91 | 0.9 | 0.94 | 1.01 | 1
Cc1ccc(NC(=O)c2ccc(CN3CCN(C)CC3)cc2)cc1Nc1nccc(-c2cccnc2)n1 [Imatinib Mesylate (STI571)] | 0.81 | 0.61 | 0.84 | 0.82 | 0.92 | 0.9
